This assay addresses AT-rich interactive domain-containing protein 1A (dog (endogenous in MDCK)). Put plainly: affinity purification with mass spectrometry; IP of endogenous ARID1A from 1 mg pre-cleared MDCK lysate (RIPA buffer: 50 mM Tris-HCl pH 7.4, 150 mM NaCl, 1 mM EDTA, 0.5% Triton X-100) with mouse monoclonal anti-ARID1A and protein G sepharose, 4 °C overnight; SDS-PAGE, in-gel tryptic digestion, nanoLC-ESI-LTQ-Orbitrap MS/MS; proteins found in the isotype IgG IP subtracted.

No constants are given. Whether binding was seen depends on the method and setting. In cells and extracts the contact can be indirect. A yes stands for co-enrichment or nearness to the bait. Other partners may have been found.

B1: Dolichyl-diphosphooligosaccharide protein glycosyltransferase subunit 1 (protein, UniProt E2RQ08 25-607)
chain: SPEAPLLVNEDVKRTVDLSSHLAKVTAEVVLAHPGGGSTARAASFLLALEPELEARLAHLGVQVKGEDEEENNLEVRETKIKGKSGRFFTVKLPVALDPGAKVSVVVETVYTHVLQPYPTQITQSEKQFVVFEGNHYFYSPYPTKTQTMRVKLASRNVESYTKLGNPTRSEDLLDYGPFRDIPAYSQDTFKVHYENNSPFLTITSMTRVIEVSHWGNIAVEENVDLKHTGAVLKGPFSRYDYQRQPDSGIASIRSFKTILPAAAQDVYYRDEIGNVSTSHLLILDDSVEMEIRPRFPLFGGWKTHYIVGYNLPSYEYLYNLGDQYALKMRFVDHVFDEQVIDSLTVKIILPEGAKNIQVDSPYEISRAPDELHYTYLDTFGRPVIVAYKKNLVEQHIQDIVVHYTFNKVLMLQEPLLVVAAFYILFFTVIIYVRLDFSITKDPAAEARMKVACITEQVLTLVNKRIGLYRHFDETINRYKQSRDVSTLNSGKKSLETEHKALTSEIASLQSRLKTEGSDLCDKVSEMQKLDAQVKELVLKSAVEAERLVAGKLKKDTYIENEKLISGKRQELVTKIDHILDAL
Turning to B1, the binding result was “binds”.

B2: Ras-related protein Rab-11A (protein, UniProt P62490 1-216)
chain: MGTRDDEYDYLFKVVLIGDSGVGKSNLLSRFTRNEFNLESKSTIGVEFATRSIQVDGKTIKAQIWDTAGQERYRAITSAYYRGAVGALLVYDIAKHLTYENVERWLKELRDHADSNIVIMLVGNKSDLRHLRAVPTDEARAFAEKNGLSFIETSALDSTNVEAAFQTILTEIYRIVSQKQMSDRRENDMSPSNNVVPIHVPPTTENKPKVQCCQNI
On to B2, for which the binding entry is recorded as “binds”.

B3: RabGDP dissociation inhibitor beta (protein, UniProt O97556 1-445)
chain: MNEEYDVIVLGTGLTECILSGIMTVNGKKVLHMDRNPYYGGESASITPLEDLYKRFKIPGAPPASMGRGRDWNLDLIPKFLMANGQLVKMLLYTEVTRYLDFKVTEGSFVYKGGKIYKVPSTEAEALASSLMGLFEKRRFRKFLVYVANFDEKDPRTFEGIDPKKTAIGEVYKKFDLGQDVIDFTGHALALYRTDDYLDQPCCETINRIKLYSESLARYGKSPYLYPLYGLGELPQGFARLSAIYGGTYMLNKPIEEIIVQNGKVIGVKSEGEVARCKQLICDPSYVKDRVEKVGQVIRVICILSHPIKNTNDANSCQIIIPQNQVNRKSDIYVCMISSAHNVAAQGKYIAIVSTTAETKEPEKEIRPALELLEPIEQKFVSISDLLVPKDLGTESQIFISRTYDATTHFETTCDDIKNIYKRMTGSEFDFEEMKRKKNDIYGED
B3: the binding entry is “binds”.

B4: Dolichyl-diphosphooligosaccharide protein glycosyltransferase 48 kDa subunit (protein, UniProt Q05052 33-445)
chain: GPRTLVLLDNLNLRETHSLFFRSLKDRAFELTFKTADDPSLSLIKYGEFLYDNLIIFSPSVEDFGGNINVETISTFIDGGGSVLVAASSDIGDPLRELGSECGIEFDEEKTAVIDHHNYDVSDLGQHTLIVADPENLLKAPTIVGRSSLNPILFRGVGMVADPDNPLVLDILTGSSTSYSFFPDKPITQYPHAVGKNTLLIAGLQARNNARVVFSGSLDFFSDAFFNSAVQKAAPGSQRYSQTGNYELAVALSRWVFKEEGVLRVGPVSHHRVGETAPPNAYTVTDLVEYSIVIEQLSNGRWVPFDGDDIQLEFVRIDPFVRTFLKKKGGKYSVQFKLPDVYGVFQFKVDYNRLGYTHLHSSTQVSVRPLQHTQYERFIPSAYPYYASAFSMMLGLFIFSTVFLHMKEKEKSD
Take B4: the binding entry is listed as “binds”.

B5: Coiled-coil domain-containing protein 39 (protein, UniProt E2R1I5 1-939)
chain: MSSELLEELHWDDGFAIPVANEENKMLEDQLSKLQEERASLQDQLRDYEDRINAMTSHFKNVKQEFSFTQSLCKAREHEIESEEHFKIIAERELGRIKDEIQRLENEMTSIREKKSDKENNIFKTTQKLDGLKCQINWDQQALEAWLEESAHKDSDALTLQKYAQQDDNKIRALTLQLERLTLECNQRRKVLDNELTETLSAQLELDKAAQDFRKIHNERQELIKQWENTIEQMRKRDRDIDNGALALARIKQELREKENLVKEKIKFLESEIGNNTEYEKRISVADRKLLKCRTEYQHHETNRNQLKDELDSLKATVNRSSSDLEALRKNISKIKKDIQEETARLQKIKNHNQSVKKKLKQITEKTMSVEEKATNLEDMLREEEKSVKEVEVQLNIVKDVLFKKVQELQTEAMKEKAVVSEIEGTRSSLKHLNHQLHKLDFETLKQQEIMYSQDFYIQQVERRMSRLKGEINSEEKQALETKIVELKKILEEKKSTFDLLESQIKKLHNDLYFIKKSNSKNCDEKQFLMTKVNELNLFNDRSEKELNKTKALKQDLMIEDNLLKLEVKRTREMLHSKAEEVLSLEKRKQQLHTAMEERMEEIKVHKTMLASQIRYIDQERQNLSAEFHERLSKIDKLKNRYEILTVVMLPPEGEEEKTQAYYVIKAAQEKEELQREGDSLDAKINKAEKEIYALENTLQVLRSCNNNYKQSFQKITPSSDEYELKIQLEEQKRAIDEKYRYKQRQIRELQEDIQSMENTLEVIEHLTNNVKEKLSEKQAYSSQLNRETEEQRPKLERVTKQCAKLTKEIRLLKDTKDETLEEQDIKLREVKHFHKIIDEMLAEVTEENAEIHIILQTYFQQNGLELPTAGTKGSRQSSRSPSQTSLLSARSTTSVASQTSIKVLELNFPASSSVTGNISRPASATTIPSNGKNKKGSK
In the case of B5, the binding entry is “binds”.

These data come from publication PMC10683333.
